Tested on: PD-1-overexpressing Jurkat cells
Assay: Small molecule screen: IL2 secretion (AlphaLISA) from stimulated PD-1-overexpressing Jurkat cells
Assay type: cell-based, human
Settings: 3.3 μM compound; for Zscore_1 / Zscore_2: IL2 level, α-CD3/α-CD28/α-PD-1 beads; for Zscore_1: replicate 1; for Zscore_2: replicate 2; for Zscore_AVG: average of replicate Z scores
Experimental: PD-1-overexpressing Jurkat cells were plated at a concentration of 100,000 cells/well in a total volume of 80 μl. […] Dynabeads conjugated to α-CD3, α-CD28, and α-PD-1 antibodies were added in 20 for a final assay volume of 100 with a final compound concentration of 3.3 μM and an 8:1 bead:cell ratio. Beads were conjugated to α-CD3/α-CD28/control IgG and added to wells containing DMSO-treated cells as a positive control, while beads conjugated to α-CD3/α-CD28/α-PD1 were added to wells containing DMSO-treated cells as a negative control. Supernatants from each well were analyzed for IL2 levels by AlphaLISA (Perkin Elmers) according to the manufacturer's protocol. Average and standard deviation values were calculated from the PD-1 controls (DMSO-treated cells stimulated with α-CD3/α-CD28/α-PD-1 beads); hits were defined as compounds scoring at least 3 standard deviations from the mean of the controls.
In addition to known negative regulators of IL-2 production (e.g. glycogen synthase kinase-3α/β (GSK3α/β) (24,25)), this screen identified cyclin-dependent kinases 4 and 6 inhibitors (CDK4/6i) as top hits (Table 1).

| Compound | Zscore_1 | Zscore_2 | Zscore_AVG |
| --- | --- | --- | --- |
| O=C1Nc2ccc(-c3cccnc3)cc2/C1=C/c1ccc[nH]1 [JAK3 Inhibitor VI] | 8.226 | 11.47 | 9.846 |
| O.O=C1NC(=O)c2c1c(-c1ccccc1)cc1[nH]c3ccc(O)cc3c21 [Wee1/Chk1 Inhibitor] | −0.1239 | −2.252 | −1.188 |

From patent publication US11865176B2, “Compositions and methods of modulating anti-tumor immunity” (Dana-Farber Cancer Institute, Inc., priority 2016, dated 2024)
